# PubChem BioAssay AID1919978 (National Center for Advancing Translational Sciences (NCATS), 2024)
# Only results without a clear call are listed here; the source files them as inconclusive. Calls follow the shape of the dose curve; as a rule, active = well fitted curve in the direction sought with a large enough effect; inconclusive = small, poorly fitted or top-dose-only effect, or another doubt; inactive = no such curve, though single readings can be large or run the other way.
# Test: qHTS Counterscreen for compound interference against the NCATS DSHEA and TCM libraries
# Settings: firefly luciferase detection reagent interference, luminescence
# Text: PI: Anton Simeonov Ph.D. Assay Development and Screening Technology Laboratory (ADST) National Center for Advancing Translational Sciences (NCATS), Rockville, MD National Institute of Health (NIH), Bethesda, Maryland Dietary Supplements and Natural Products have minor oversight of their safety and efficacy. We assembled a collection of Dietary Supplements and Natural Products (DSNP) as well as Traditional Chinese Medicinal (TCM) Plant extracts, which were screened against an in vitro panel of assays, including a liver cytochrome p450 enzyme panel, CAR/PXR signaling pathways, and P-gp transporter assays, to assess their activity. This pipeline facilitated the interrogation of Natural Product-Drug Interaction (NaPDI) through prominent metabolizing pathways. […] Overall, we highlight four significant bioactivity profiles (measured by p-values) as examples of this prediction. […] To profile potential P-gp activity, a differential cell viability was measured against two cell lines: a parental KB-3-1 human cervical adenocarcinoma cell line and the drug-resistant subline KB-8-5-11 that overexpresses P-gp. […]
# PROTOCOL TABLE (as described by Inglese J, Shamu CE and Guy RK. 2007) SEQUENCE No. (e.g., 1, 2, 3, etc.); […] […] 7; Read; Luminescence; ViewLux plate reader. […] Plates were then read for luminescence intensity on a ViewLux detector. […]
compound,measurement,value
C/C1=C2N=C(/C=C3N=C(/C(C)=C4\[N-][C@@](C)([C@@H]5N=C1[C@](C)(CCC(=O)NC[C@@H](C)OP(=O)([O-])O[C@H]1[C@@H](O)[C@@H](n6cnc7cc(C)c(C)cc76)O[C@@H]1CO)[C@H]5CC(N)=O)[C@@](C)(CC(N)=O)[C@@H]4CCC(N)=O)[C@@](C)(CC(N)=O)[C@@H]\3CCC(N)=O)C(C)(C)[C@@H]/2CCC(N)=O.[C-]#N.[Co+3],Potency,inconclusive: 31.6 µM
